No constants are given. Whether binding was seen depends on the method and setting.
Biological target: recombinant Ani s 5 (Anisakis simplex) (UniProt A1IKL2)
Assay: AUC; sedimentation velocity, interference optics, 45,000 rpm, 20°C, under the NMR conditions (approximately 0.5 mM labelled His-tagged protein, pH 5.0 and 3.5); c(s) analysis with SEDFIT; both purified

B1: recombinant Ani s 5 (protein, UniProt A1IKL2 19-152)
chain: DDTPPPPPFLAGAPQDVVKAFFELLKKDETKTDPEIEKDLDAWVDTLGGDYKAKFETFKKEMKAKEAELAKAHEEAVAKMTPEAKKADAELSKIAEDDSLNGIQKAQKIQAIYKTLPQSVKDELEKGIGPAVPQ
modifications: 100% 13C and 15N isotopic labelling
- binding: no binding (tested: approximately 0.5 mM (NMR conditions))
